Data as given in paper PMC4365484.
These are yes or no findings as the source states them, for the method shown. In cells and extracts the contact can be indirect. Some results given as binding are weak or reduced against the parent protein; the word gives no strength.

Chains of the proteins cited; added tags and fusions are not shown.
UniProt Q9BZD4: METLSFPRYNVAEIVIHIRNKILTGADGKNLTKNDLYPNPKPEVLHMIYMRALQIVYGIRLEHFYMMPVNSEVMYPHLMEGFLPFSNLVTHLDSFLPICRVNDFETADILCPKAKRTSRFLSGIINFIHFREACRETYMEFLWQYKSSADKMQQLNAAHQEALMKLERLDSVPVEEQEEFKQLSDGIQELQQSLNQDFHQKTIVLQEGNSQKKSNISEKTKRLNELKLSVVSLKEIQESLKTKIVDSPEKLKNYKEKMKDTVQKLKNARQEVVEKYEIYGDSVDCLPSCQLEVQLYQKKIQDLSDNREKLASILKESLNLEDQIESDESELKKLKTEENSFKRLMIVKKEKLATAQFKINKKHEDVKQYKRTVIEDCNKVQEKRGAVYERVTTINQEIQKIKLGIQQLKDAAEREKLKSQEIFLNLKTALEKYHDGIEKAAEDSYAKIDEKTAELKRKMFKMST
UniProt Q15691: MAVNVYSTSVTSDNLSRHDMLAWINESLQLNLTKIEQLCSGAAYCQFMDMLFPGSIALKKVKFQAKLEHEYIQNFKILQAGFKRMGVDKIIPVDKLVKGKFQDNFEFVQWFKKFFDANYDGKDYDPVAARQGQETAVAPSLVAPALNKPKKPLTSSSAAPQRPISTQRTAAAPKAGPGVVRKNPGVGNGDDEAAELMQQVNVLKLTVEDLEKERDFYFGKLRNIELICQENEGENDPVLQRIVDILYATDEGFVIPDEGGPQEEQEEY

Columns and labels:
[1] = target: Flag-tagged Nuf2 (human) (UniProt Q9BZD4); assay: co-IP; anti-Flag antibody and Dynabeads Protein G from lysates of UTA6 Flag-EB1 or UTA6 Flag-Nuf2 cells, 4°C, eluted with 3xFlag peptide, fluorescent immunoblot; cells DMA-arrested (prometaphase) or released from DMA for 45 min (anaphase)
[2] = target: Flag-tagged EB1 (human) (UniProt Q15691); assay: as above

binding [1]: no binding
binding [2]: binds
Substance: p150 (DCTN1) (from UniProt Q14203-1 1-1278)
